# Assay results from article PMC5996148.
# Where “and” joins values, the source holds several entries; their conditions need not be identical. Equal entries are not always repeated. Some of the results follow.
# Tests used:
# Assay in all cases: protein microarray (ProtoArray v5.0), streptavidin-Alexa Fluor 647
# Settings in all cases: 3'-biotin; 20 mM Tris (pH 7.5), 5 mM MgCl2, 100 mM KCl, 0.1% Tween-20, A/T-rich and random oligonucleotide blockers; temperature not stated; high values mean tight binding
# [1] = test system: cDNA clone MGC:39134 IMAGE:4892821 (human)
# [2] = test system: cDNA clone MGC:40177 IMAGE:5167345, complete cds (human)
# [3] = test system: cDNA clone MGC:48448 IMAGE:5266019 (human)
# [4] = test system: cDNA clone MGC:52019 IMAGE:5188979 (human)
# [5] = test system: cDNA clone MGC:70358 IMAGE:5539182 (human)
# [6] = test system: cDNA clone MGC:75009 IMAGE:5170001 (human)
# [7] = test system: cDNA clone MGC:8430 IMAGE:2821116 (human)
# [8] = test system: cDNA clone MGC:88809 IMAGE:6279986 (human)
# guanine-9- (human) = test system: guanine-9- (human)
# [9] = test system: hypothetical LOC554201 (human)
sequence,measurement,setting,value
GGGGACAGGGGTATGGGGAGGGG [G4-3 biotinylated (CtG)],binding signal,[1],-0.332 z-score
same,binding signal,[2],-0.328 z-score
same,binding signal,[3],-0.324 z-score
same,binding signal,[4],-0.322 z-score
same,binding signal,[5],-0.331 z-score
same,binding signal,[6],-0.337 z-score
same,binding signal,[7],-0.329 z-score
same,binding signal,[8],-0.324 z-score
same,binding signal,guanine-9- (human),4.73 z-score and 4.57 z-score
same,binding signal,[9],-0.331 z-score

# Reformatted tab-delimited: entries from further up.
sequence	measurement	setting	value
GGGGACAGGGGTATGGGGAGGGG [G4-3 biotinylated (CtG)]	binding signal	[4]	-0.322 z-score
same	binding signal	[5]	-0.331 z-score
